These are yes or no findings as the source states them, for the method shown. In cells and extracts the contact can be indirect. Some entries that bind do so weakly or less than the wild type.

Chains of the proteins cited; added tags and fusions are not shown.
UniProt P10218: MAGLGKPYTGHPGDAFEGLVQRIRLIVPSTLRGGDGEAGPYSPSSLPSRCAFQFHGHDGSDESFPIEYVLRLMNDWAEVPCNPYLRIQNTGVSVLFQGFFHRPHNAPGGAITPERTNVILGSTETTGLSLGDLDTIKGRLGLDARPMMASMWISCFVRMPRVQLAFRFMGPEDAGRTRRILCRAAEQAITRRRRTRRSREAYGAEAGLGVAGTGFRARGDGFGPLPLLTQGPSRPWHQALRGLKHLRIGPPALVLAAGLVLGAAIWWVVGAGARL
UniProt P10215: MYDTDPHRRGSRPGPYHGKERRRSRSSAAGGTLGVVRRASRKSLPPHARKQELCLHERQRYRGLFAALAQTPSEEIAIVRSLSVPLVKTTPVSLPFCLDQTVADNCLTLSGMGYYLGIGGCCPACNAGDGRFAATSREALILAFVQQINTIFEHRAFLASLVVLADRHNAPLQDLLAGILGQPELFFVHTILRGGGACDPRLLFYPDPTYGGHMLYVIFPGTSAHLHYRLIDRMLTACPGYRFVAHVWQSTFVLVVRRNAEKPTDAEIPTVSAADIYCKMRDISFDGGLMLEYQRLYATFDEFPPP

This test concerns the target HA-tagged HSV-1 pUL34 (HSV-1 strain F) (UniProt P10218). Description: co-IP.

“HSV-1 pUL31-FLAG (from UniProt P10215 1-306)”: the binding entry is listed as “binds”.

The values above are taken from publication doi:10.1101/2021.06.18.449081.
